Consider two sequences from patent US20040219554, “Dna binding protein” (published 2004).

For this data set, the target named is T1, DUE-B (pGK16B, Gal4 activation domain fusion) (Homo sapiens) (UniProt Q8TEA8).
T1 sequence: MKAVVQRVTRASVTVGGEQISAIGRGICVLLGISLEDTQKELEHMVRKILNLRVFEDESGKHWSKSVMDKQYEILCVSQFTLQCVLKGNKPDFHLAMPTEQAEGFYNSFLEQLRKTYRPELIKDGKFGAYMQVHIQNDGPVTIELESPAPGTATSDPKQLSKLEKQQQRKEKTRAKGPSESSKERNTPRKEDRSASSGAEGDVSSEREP
Put plainly: one hybrid. As to conditions: protein in cells, protein details: GAL4 activation domain fusion (pGAD-GH).

At least one result comes from cells or an extract, where the contact may be indirect. No signal at the amounts used counts as a negative. Protein sequences can lack the tags named with them.

As for “ATGAGAAGAATGTTTTTTGCGCTTCATGCCGTGGAATAACACAGCGTAAAAAATCCCGAGGGAATGCACATTGCATATTGCGCGTACGATCATTTCAGG (double strand) [mutant DUE/mutant ARS bait (DMAM)]”, the binding result (no sustained growth, reporter expression eliminated, variant of wild type DUE/ARS bait (DWAW)) is “no binding”.

“ATGAGAAGAATGTTTTTTGTTTTTCATGCCGTGGAATAACACAAAATAAAAAATCCCGAGGGAATATACATTATATATTAAATATAGATCATTTCAGG (double strand) [wild type DUE/ARS bait (DWAW)]”: the binding result (robust growth on his- with 3-AT) is “binds”.
